{"source": "patent US20090054346A1", "about": "(Rohto Pharmaceutical Co., Ltd., priority 2006, published 2009)", "test": "general procedure: Fmoc solid-phase peptide synthesis", "conditions": "whole synthesis, 220 nm", "note": "HELM strings list residues between dots; [ac] is acetyl, [am] amide, other brackets name non-standard units.", "data": [{"substance": "PEPTIDE1{L.E.H.A}$$$$V2.0", "values": [{"measurement": "final HPLC purity", "value": 99, "unit": "%"}]}]}
